Values of other authors in patent US20220192984A1, “PHARMACEUTICAL COMPOSITIONS COMPRISING OTIC THERAPEUTIC AGENTS AND RELATED METHODS” (Frequency Therapeutics, Inc., priority 2018, published 2022).
At least one structure is not confirmed: it was looked up by name or label, or the drawing left a doubt.

The chains behind the UniProt entries cited, without tags or fusion partners.
UniProt Q15910, whole entry, species assumed: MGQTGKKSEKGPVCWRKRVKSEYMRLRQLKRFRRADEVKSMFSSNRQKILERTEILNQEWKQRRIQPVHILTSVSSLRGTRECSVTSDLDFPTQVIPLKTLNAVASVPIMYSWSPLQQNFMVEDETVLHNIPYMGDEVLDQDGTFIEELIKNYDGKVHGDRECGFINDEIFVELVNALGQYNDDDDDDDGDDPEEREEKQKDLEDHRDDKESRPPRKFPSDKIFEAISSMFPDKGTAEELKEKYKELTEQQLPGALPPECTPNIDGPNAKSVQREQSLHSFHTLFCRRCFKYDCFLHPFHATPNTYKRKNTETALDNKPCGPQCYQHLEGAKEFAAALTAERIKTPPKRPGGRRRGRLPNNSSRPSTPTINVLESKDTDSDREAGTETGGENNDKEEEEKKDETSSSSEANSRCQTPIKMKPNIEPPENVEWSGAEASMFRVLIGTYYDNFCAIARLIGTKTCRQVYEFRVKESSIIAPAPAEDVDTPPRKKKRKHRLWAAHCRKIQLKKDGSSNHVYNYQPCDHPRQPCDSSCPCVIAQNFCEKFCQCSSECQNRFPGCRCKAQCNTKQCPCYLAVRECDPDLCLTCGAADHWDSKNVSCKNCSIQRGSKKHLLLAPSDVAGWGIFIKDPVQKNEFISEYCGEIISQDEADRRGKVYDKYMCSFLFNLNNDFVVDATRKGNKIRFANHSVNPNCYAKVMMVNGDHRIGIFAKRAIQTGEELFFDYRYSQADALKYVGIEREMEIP

How the values were obtained:
EZH2 = EZH2 (Homo sapiens, UniProt Q15910); details: Table 19; cited from earlier work
MAOs A and B = details: Table 18, one value, isoform not told; read-out: Select MAOs A and B; cited from earlier work

For `Nc1ncnc2c1ncn2[C@@H]1O[C@H](C[C@@H](N)CC[C@H](N)C(=O)O)[C@@H](O)[C@H]1O` [Sinefungin], the “Lit Cell Poten” value (EZH2) is given as 33 nM.
For `C/C(=N\NC(=O)c1cccc(S(=O)(=O)N2CCOCC2)c1)c1cc(Cl)ccc1O` [SP-2509], the IC50 (MAOs A and B) is listed as > 300 µM.
